Laboratory results: article PMC5412822
These are yes or no findings as the source states them, for the method shown. Binding seen in cells or lysates may run through a third protein. Some results given as binding are weak or reduced against the parent protein; the word gives no strength. One block for each binder: values may come before it.

Legend:
[1] = molecular target: T1, caspase‐8 (human (endogenous in HeLa, A549 and K562)), Q14790; assay: co-IP; TRAIL complex II: HeLa cells stimulated with FLAG-lz-TRAIL (500 ng/ml); complex I-depleted lysates incubated overnight at 4°C with protein G beads coupled with anti-caspase-8 antibody (clone C20), Western blot; settings: remark: other sources report otherwise
T1 chain: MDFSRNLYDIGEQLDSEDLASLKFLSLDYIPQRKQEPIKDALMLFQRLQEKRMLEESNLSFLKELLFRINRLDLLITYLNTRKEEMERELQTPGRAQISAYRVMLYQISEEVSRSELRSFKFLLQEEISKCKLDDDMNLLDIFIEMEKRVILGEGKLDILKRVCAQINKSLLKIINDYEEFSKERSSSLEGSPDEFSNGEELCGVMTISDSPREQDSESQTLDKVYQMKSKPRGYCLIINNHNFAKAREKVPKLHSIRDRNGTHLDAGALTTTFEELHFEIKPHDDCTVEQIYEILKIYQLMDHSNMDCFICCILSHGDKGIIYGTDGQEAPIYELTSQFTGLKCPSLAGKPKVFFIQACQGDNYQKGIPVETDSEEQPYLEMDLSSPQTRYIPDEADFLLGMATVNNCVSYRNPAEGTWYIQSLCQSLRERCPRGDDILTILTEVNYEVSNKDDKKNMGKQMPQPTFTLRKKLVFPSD

[2] = molecular target: caspase‐8 (human (endogenous in HeLa, A549 and K562)) (UniProt Q14790); assay: as above
[3] = molecular target: T2, FADD (murine) (mouse (endogenous in MEFs)), Q61160; assay: co-IP; WT and HOIP KO TNF KO MEFs, pre-treated with zVAD for 1 h, stimulated with iz-murine TRAIL (1 μg/ml); FADD-containing complexes precipitated with protein G beads coupled with anti-murine FADD antibody (clone M19) overnight at 4°C, Western blot; settings: remark: other sources report otherwise
T2 chain: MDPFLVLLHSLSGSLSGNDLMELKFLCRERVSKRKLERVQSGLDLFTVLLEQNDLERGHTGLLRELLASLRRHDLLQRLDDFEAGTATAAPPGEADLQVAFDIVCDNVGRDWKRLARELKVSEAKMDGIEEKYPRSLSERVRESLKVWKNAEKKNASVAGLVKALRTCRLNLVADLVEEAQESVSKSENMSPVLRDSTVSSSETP

[4] = molecular target: T3, FADD (murine) (mouse (endogenous in MEFs)) (UniProt Q61160); assay: as above
T3 sequence: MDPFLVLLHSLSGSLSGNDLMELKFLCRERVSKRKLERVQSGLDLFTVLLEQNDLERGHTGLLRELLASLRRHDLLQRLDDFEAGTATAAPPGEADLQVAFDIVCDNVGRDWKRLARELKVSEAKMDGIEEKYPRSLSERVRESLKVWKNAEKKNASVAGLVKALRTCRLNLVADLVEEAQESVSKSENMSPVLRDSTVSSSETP

B1: TRAF2, Q12933 1-501 (protein)
chain: MAAASVTPPGSLELLQPGFSKTLLGTKLEAKYLCSACRNVLRRPFQAQCGHRYCSFCLASILSSGPQNCAACVHEGIYEEGISILESSSAFPDNAARREVESLPAVCPSDGCTWKGTLKEYESCHEGRCPLMLTECPACKGLVRLGEKERHLEHECPERSLSCRHCRAPCCGADVKAHHEVCPKFPLTCDGCGKKKIPREKFQDHVKTCGKCRVPCRFHAIGCLETVEGEKQQEHEVQWLREHLAMLLSSVLEAKPLLGDQSHAGSELLQRCESLEKKTATFENIVCVLNREVERVAMTAEACSRQHRLDQDKIEALSSKVQQLERSIGLKDLAMADLEQKVLEMEASTYDGVFIWKISDFARKRQEAVAGRIPAIFSPAFYTSRYGYKMCLRIYLNGDGTGRGTHLSLFFVVMKGPNDALLRWPFNQKVTLMLLDQNNREHVIDAFRPDVTSSSFQRPVNDMNIASGCPLFCPVSKMEAKNSYVRDDAIFIKAIVDLTGL
binding [1]: binds

B2: SHARPIN (protein, UniProt Q9H0F6 1-387)
chain: MAPPAGGAAAAASDLGSAAVLLAVHAAVRPLGAGPDAEAQLRRLQLSADPERPGRFRLELLGAGPGAVNLEWPLESVSYTIRGPTQHELQPPPGGPGTLSLHFLNPQEAQRWAVLVRGATVEGQNGSKSNSPPALGPEACPVSLPSPPEASTLKGPPPEADLPRSPGNLTEREELAGSLARAIAGGDEKGAAQVAAVLAQHRVALSVQLQEACFPPGPIRLQVTLEDAASAASAASSAHVALQVHPHCTVAALQEQVFSELGFPPAVQRWVIGRCLCVPERSLASYGVRQDGDPAFLYLLSAPREAPATGPSPQHPQKMDGELGRLFPPSLGLPPGPQPAASSLPSPLQPSWSCPSCTFINAPDRPGCEMCSTQRPCTWDPLAAAST
binding [2]: binds

binding [3]: binds
B3: RIPK3 (murine), Q9QZL0 1-486 (enzyme)
chain: MSSVKLWPTGASAVPLVSREELKKLEFVGKGGFGVVFRAHHRTWNHDVAVKIVNSKKISWEVKAMVNLRNENVLLLLGVTEDLQWDFVSGQALVTRFMENGSLAGLLQPECPRPWPLLCRLLQEVVLGMCYLHSLNPPLLHRDLKPSNILLDPELHAKLADFGLSTFQGGSQSGSGSGSGSRDSGGTLAYLDPELLFDVNLKASKASDVYSFGILVWAVLAGREAELVDKTSLIRETVCDRQSRPPLTELPPGSPETPGLEKLKELMIHCWGSQSENRPSFQDCEPKTNEVYNLVKDKVDAAVSEVKHYLSQHRSSGRNLSAREPSQRGTEMDCPRETMVSKMLDRLHLEEPSGPVPGKCPERQAQDTSVGPATPARTSSDPVAGTPQIPHTLPFRGTTPGPVFTETPGPHPQRNQGDGRHGTPWYPWTPPNPMTGPPALVFNNCSEVQIGNYNSLVAPPRTTASSSAKYDQAQFGRGRGWQPFHK

binding [4]: binds
B4: MLKL (murine) (protein, UniProt Q9D2Y4 1-472)
chain: MDKLGQIIKLGQLIYEQCEKMKYCRKQCQRLGNRVHGLLQPLQRLQAQGKKNLPDDITAALGRFDEVLKEANQQIEKFSKKSHIWKFVSVGNDKILFHEVNEKLRDVWEELLLLLQVYHWNTVSDVSQPASWQQEDRQDAEEDGNENMKVILMQLQISVEEINKTLKQCSLKPTQEIPQDLQIKEIPKEHLGPPWTKLKTSKMSTIYRGEYHRSPVTIKVFNNPQAESVGIVRFTFNDEIKTMKKFDSPNILRIFGICIDQTVKPPEFSIVMEYCELGTLRELLDREKDLTMSVRSLLVLRAARGLYRLHHSETLHRNISSSSFLVAGGYQVKLAGFELSKTQNSISRTAKSTKAERSSSTIYVSPERLKNPFCLYDIKAEIYSFGIVLWEIATGKIPFEGCDSKKIRELVAEDKKQEPVGQDCPELLREIINECRAHEPSQRPSVDGRSLSGRERILERLSAVEESTDKKV
